Article doi:10.1101/2025.10.27.684718

Protein sequences, listed by entry. Tags and fused reporters are not part of them. Lines headed by an entry give the natural chain unless they say otherwise; changes in a name come on top.
UniProt Q14654: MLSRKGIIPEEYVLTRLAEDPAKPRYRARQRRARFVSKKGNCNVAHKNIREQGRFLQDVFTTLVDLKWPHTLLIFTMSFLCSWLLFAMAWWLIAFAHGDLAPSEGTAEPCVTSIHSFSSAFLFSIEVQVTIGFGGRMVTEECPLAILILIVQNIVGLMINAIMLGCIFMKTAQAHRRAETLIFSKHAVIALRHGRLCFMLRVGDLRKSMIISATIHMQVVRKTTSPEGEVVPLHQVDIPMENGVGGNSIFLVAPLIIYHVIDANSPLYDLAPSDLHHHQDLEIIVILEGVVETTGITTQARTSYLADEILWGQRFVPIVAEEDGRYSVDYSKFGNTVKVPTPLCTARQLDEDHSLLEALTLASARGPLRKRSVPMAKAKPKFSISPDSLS

Target: maSUR1 (E203K) subunit of the cryo-EM KATP construct (Mesocricetus auratus)
Test: cryo-EM structure

binding: binds
Substance: hsKir6.2 (Q52E) subunit of the cryo-EM KATP construct (from UniProt Q14654)

Results are given in words; binding and its absence hold for the method and conditions named. Binding calls can cover weak binding; strength is not graded here.
